Source: ChEMBL document CHEMBL3988442, “University of Dundee, Small-Polar-MMV Screening Library” (2021).

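Assay on Mycobacterium tuberculosis, filed only as a heat shock assay from Cornell; the read-out is not stated. The concentration is filed as 10 mM, unlikely as a test dose, so the dose is not known. Higher reads as stronger inhibition (inferred: compounds with an IC50 in retests scored well above the rest). Size under these conditions: about 69,000 compounds, about 930 of them at 50% or above in at least one test.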

Results are given as percent effect.
The record does not define 0% and 100%; most values in the screen are far below 50% and negative numbers occur (in some assays of this library far below -100).
Compounds were drawn at random from those tested, without regard to their results.

| # | Compound | effect |
|---|---|---|
| 1 | `c1cnc(-c2nc(CN3CCn4c(nnc4C4CC4)C3)cs2)nc1` | 18.84 |
| 2 | `O=C(Cn1nnn(-c2cccs2)c1=O)N(CC1CCOC1)C1CC1` (stereo not drawn) | -9.179 |
| 3 | `CN(C)c1cc(CNC(=O)Nc2ccc(C#N)cc2)ccn1` | 9.243 |
| 4 | `CO[C@H]1CN(C(=O)OC(C)(C)C)CC1NCc1ccn(C)c1` (stereo partly drawn) | -14.2 |
| 5 | `CN(Cc1ccc(Cl)cc1)S(=O)(=O)N(C)Cc1cnn(C)c1` | 3.421 |
| 6 | `Cc1cc2c(N3CCC(N(C)Cc4cnn(C)c4)CC3)ncnc2s1` | -33.26 |
| 7 | `Cc1ccc(Cn2cc(C)c(N)n2)cc1` | -19.15 |
| 8 | `CC(C#N)NS(=O)(=O)c1cccc(C(C)C)c1` (stereo not drawn) | -23.88 |
| 9 | `CCOCC(O)CN1CCN(C(=O)c2cc(C)ccc2F)CC1` (stereo not drawn) | 3.702 |
| 10 | `CCc1nc(-c2ccc(C(=O)N3CCC4(CC3)OCCO4)cc2)no1` | -12.15 |
| 11 | `CC(C)(C(=O)NCc1n[nH]c(=O)[nH]1)c1ccc(F)cc1` | -40.4 |
| 12 | `Cn1nc(Cn2cccc2)c2c1CN(Cc1ccsc1)C2.O=C(O)C(F)(F)F` | 8.827 |
| 13 | `[H][C@]12CC[C@]([H])(C1)N(C(=O)c1cccnc1-c1ccoc1)C2` | 46.37 |
| 14 | `c1cn(-c2ccc(N3CCC(NC4CC4)CC3)cc2)cn1` | -22.93 |
| 15 | `CN(Cc1ccc(N(C)C)cc1)C(=O)CS(=O)(=O)c1ccc(Cl)cc1` | -13.78 |
| 16 | `c1cc(N2CCC(c3nnc(Cn4ccnc4)n3C3CC3)CC2)ccn1` | -16.39 |
| 17 | `Cc1ccc(-c2cn[nH]c2C2CCCN(c3cc(N)ncn3)C2)cc1` (stereo not drawn) | 36 |
| 18 | `CC(C)(C)c1ncc(CNCC2CCCN2c2cccnn2)s1` (stereo not drawn) | 12.8 |
| 19 | `Cc1cc(CN(C)C2CCCN(Cc3noc(C4CC4)n3)C2)no1` (stereo not drawn) | -14.42 |
| 20 | `Brc1ccc(-c2nnc(CN(Cc3cccs3)CC3CCCO3)o2)s1` (stereo not drawn) | 28.55 |
| 21 | `CC(OCC1CC1)C(=O)N1CCCN(c2nc3ccccc3[nH]2)CC1` (stereo not drawn) | 22.37 |
| 22 | `CC(C)NC(=O)c1nnn(-c2ccc(F)cc2)c1C1CC1` | 2.03 |
| 23 | `CCn1c(C(=O)N2CCN(CC[S+](C)[O-])CC2)cc2ccccc21` (stereo not drawn) | 1.492 |
| 24 | `Cc1cc(CNC(=O)c2cnoc2C)c(C)o1` | 8.739 |
| 25 | `CCS(=O)(=O)Nc1ccc(C(=O)NCCCN2CCCC2)cc1` | 5.206 |
| 26 | `COc1c(C2CCCN2C(=O)c2c(C)noc2C)c(C)nn1C` (stereo not drawn) | 2.185 |
| 27 | `Cc1ccc(N2CCCc3sc(C(=O)NCC4CCCO4)nc32)nn1` (stereo not drawn) | -3.065 |
| 28 | `Cc1cccc(C(=O)N2CCN(CCOC(C)C)CC2)n1` | 9.642 |
| 29 | `O=C(C(C1CC1)C1CC1)N1CCC(n2ccnn2)CC1` | -2.95 |
| 30 | `COc1ncc(CN2CCC3(CCCN(CC4CCCCC4)C3)C2)cn1` (stereo not drawn) | -15.36 |
| 31 | `COc1ccc(-c2nnsc2C(=O)N2CCC(C(N)=O)CC2)cc1` | 2.938 |
| 32 | `CCCc1n[nH]c(C2CN(C(=O)c3cncnc3C)CCO2)n1` (stereo not drawn) | -1.221 |
| 33 | `CC(=O)N1CC(c2n[nH]c3ncccc23)C1` | 0.9549 |
| 34 | `COCCS(=O)(=O)Cc1csc(NC(C)=O)n1` | 21.75 |
| 35 | `CC(=O)N1CCC(Cc2cnc(-c3c(C)n[nH]c3C)cn2)CC1` | -7.668 |
| 36 | `Cc1ccc(CN2CC3(CCN(C(=O)c4cscn4)C3)C2)o1.O=C(O)C(F)(F)F` | -48.9 |
| 37 | `COCCCC(=O)NCc1cccc(NC(N)=O)c1` | -12.35 |
| 38 | `Cc1nn(C)cc1C1CC(=O)Nc2c1cnn2C(C)C` (stereo not drawn) | 10.67 |
| 39 | `O=c1[nH]c(-c2ccncc2)ncc1-c1ccnc(N2CCOCC2)n1` | 3.21 |
| 40 | `Cc1n[nH]c(C2CN(C(=O)Cn3ccccc3=O)CCO2)n1` (stereo not drawn) | -12.52 |
| 41 | `O=C(O)C(F)(F)F.[H][C@@]12CN(C(=O)C(C)C)CCC[C@]1(C(=O)N(C)C)CN(c1ccccn1)C2` | -34.76 |
| 42 | `O=C(COCc1ccccc1)N1CCN(c2ccc(Cl)cn2)CC1` | 5.986 |
| 43 | `O=C(CCc1ccsc1)NCC1CCN(c2ccccc2)C1` (stereo not drawn) | 105.9 |
| 44 | `CCOC(=O)N1CCC(OC)c2ccccc2N(CC(=O)NC)C(=O)C1` (stereo not drawn) | 31.13 |
| 45 | `CCC(=O)N1CCC2(CC1)CN(C(C)=O)c1ccc(C)cc12` | 14.53 |
| 46 | `Cc1nc(C)n(CC2CCCN(Cc3ccc(F)cc3C#N)C2)n1` (stereo not drawn) | -3.533 |
| 47 | `CN(C)CCN1CCOCC2(CCCN(C(=O)c3ccoc3)C2)C1.O=C(O)C(F)(F)F.O=C(O)C(F)(F)F` (stereo not drawn) | -18.59 |
| 48 | `COCCCN(C)c1ncccc1I` | 2.851 |
| 49 | `COc1cccc(CN(C)CC2=Nc3ccccc3S(=O)(=O)N2)c1` | -3.761 |
| 50 | `CC(C)C(C)N(Cc1ccccn1)Cc1ccco1` (stereo not drawn) | 5.82 |
| 51 | `CCCNS(=O)(=O)c1cnccc1N1CCN(C(C)C)CC1` | 1.329 |
| 52 | `CN(CC(=O)N1CCCCC1c1nccs1)C1CC1` (stereo not drawn) | -5.086 |
| 53 | `COCCC1(CO)CCCN(CCCc2ccccc2)C1` (stereo not drawn) | -18.11 |
| 54 | `CC(=O)N1CCCC2(CN(Cc3ccc(C)s3)CCO2)C1.O=C(O)C(F)(F)F` (stereo not drawn) | -0.02501 |
| 55 | `O=C(OCc1cccs1)c1cccc(C(=O)N2CCCC2)n1` | -3.349 |
| 56 | `O=C(O)C(F)(F)F.O=C(O)C(F)(F)F.[H][C@@]12CN(Cc3cc[nH]n3)C[C@]1([H])OCCN2C(C)C` | 21.08 |
| 57 | `[H][C@]12CC[C@]([H])(CN(C(C)=O)C1)N(S(=O)(=O)c1ccccc1Cl)C2` | -21.33 |
| 58 | `OC[C@H]1CN(C2Cc3ccccc3C2)C[C@H]1CN1CCC(O)CC1` | -13.09 |
| 59 | `c1cc(-c2cncnc2)cc(-c2ccn(CC3CCNC3)n2)c1` (stereo not drawn) | 8.343 |
| 60 | `Cc1nc(C)c(CC(=O)NCc2cccnc2OC2CCCC2)c(=O)[nH]1` | 5.808 |
| 61 | `O=C(NC1CCC1)C1CCC2(CN(C(=O)c3ccno3)C2)O1` (stereo not drawn) | 10.76 |
| 62 | `OC(COCc1ccccc1F)CN1CCC(Cn2cccn2)CC1` (stereo not drawn) | -21.6 |
| 63 | `CCN(CC)C1(Cc2cc(CC(C)C)on2)COC1` | -0.6351 |
| 64 | `CCc1ccc2nc(C)cc(C(=O)N[C@@H]3CCCNC3)c2c1` | -194.5 |
| 65 | `O=C(c1cc2ccccc2s1)N1CCC(C(=O)O)(n2cccn2)CC1` | -6.358 |
| 66 | `CCOc1ccc(CC(CNC(=O)c2ccoc2)C(N)=O)cc1` (stereo not drawn) | -12.92 |
| 67 | `CCc1nnc(CN2CCN(C(C)=O)CC2)o1` | -4.36 |
| 68 | `Cc1cc(C)n(CCNC(=O)c2cc(C3CC3)n[nH]2)n1` | -19.38 |
| 69 | `O=C(Cc1ccc(F)cc1)NCCNS(=O)(=O)c1ccc(F)c(F)c1` | 10.17 |
| 70 | `Cc1ccc2cc(C3(O)CCN(C(=O)CN4CCCC4)CC3)ccc2n1` | 49.23 |
| 71 | `c1c(CN2CCCCC2)nc2n1CCN(CC1CC1)C2` | 5.038 |
| 72 | `O=C(NCC1CC1)C1CN(C(=O)c2cccs2)CC12CCOCC2` (stereo not drawn) | 1.356 |
| 73 | `COCCC(=O)N1CCN(C)c2ncccc2C1` | -20.92 |
| 74 | `CSCc1cccc(S(=O)(=O)N2CCCCCC2)c1` | 10.38 |
| 75 | `O=C(NCc1ccccc1)N1CCC2(CC(=O)N(c3ccccc3)C2)C1` (stereo not drawn) | -13.58 |
| 76 | `CNC(=O)CN1CCOCC2(CN(CCC(F)(F)F)CCO2)C1.O=C(O)C(F)(F)F.O=C(O)C(F)(F)F` (stereo not drawn) | -25.1 |
| 77 | `Cc1noc(C(C)C)c1C(=O)NCCC(=O)N1CCCCC1` | -0.8427 |
| 78 | `Cc1ccc(-c2nc(CNC(C)CCO)[nH]c2-c2ccccn2)cc1` (stereo not drawn) | 77 |
| 79 | `COc1cccc(CN2CCCC3(CCN(C(=O)[C@H]4CCCO4)C3)C2)c1` (stereo partly drawn) | -15.42 |
| 80 | `CCCNC(=O)CNc1ccccc1OCCC(=O)OC` | -2.895 |
| 81 | `COc1ncccc1-c1ncccc1NC(=O)C(C)C` | 18.77 |
| 82 | `CC(C)c1n[nH]c(C2CN(CCc3cccs3)CCO2)n1` (stereo not drawn) | 9.24 |
| 83 | `Cc1occc1C(=O)N1CCc2c(COCC3CC3)cncc2C1` | -3.129 |
| 84 | `CCNc1ncc(C(=O)NCC2OCCc3ccccc32)cn1` (stereo not drawn) | 9.76 |

For reference, 9 entries once more:

Compound	effect
COCCC1(CO)CCCN(CCCc2ccccc2)C1 (stereo not drawn)	-18.11
Cc1cc(CN(C)C2CCCN(Cc3noc(C4CC4)n3)C2)no1 (stereo not drawn)	-14.42
OC[C@H]1CN(C2Cc3ccccc3C2)C[C@H]1CN1CCC(O)CC1	-13.09
CC(=O)N1CC(c2n[nH]c3ncccc23)C1	0.9549
CC(C)(C)c1ncc(CNCC2CCCN2c2cccnn2)s1 (stereo not drawn)	12.8
Cc1cc(C)n(CCNC(=O)c2cc(C3CC3)n[nH]2)n1	-19.38
Cn1nc(Cn2cccc2)c2c1CN(Cc1ccsc1)C2.O=C(O)C(F)(F)F	8.827
O=C(NCc1ccccc1)N1CCC2(CC(=O)N(c3ccccc3)C2)C1 (stereo not drawn)	-13.58
CCOc1ccc(CC(CNC(=O)c2ccoc2)C(N)=O)cc1 (stereo not drawn)	-12.92